Taken from: PubChem BioAssay AID1259308 (NCATS, 2017)
This is an unselected part of about 59,000 reagents tested. Over the whole deposit, about 1,510 (2.6%) are marked active. 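Calls use total luciferase alone and ignore viability, so some active siRNAs may act by altering cell number.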 The numbers tell different reagents against one gene apart. Not all columns of the deposit are shown.

Screen: 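Knock-downs that increase output of a recombinant reporter protein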 (primary screen)
Cells: human HEK293 embryonic kidney cells stably expressing firefly luciferase (HEK-CMV-Luc2-Hygro)
Reagent: single siRNA against human genes, 0.8 pmol siRNA per well
Timing: 72 h
Detection: 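Luciferase light (ONE-Glo) measured on one replicate plate set and viability (CellTiter-Glo) on the other, scaled to a negative control siRNA, with robust z-scores and luciferase per cell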
Scale: total luciferase, z-score: higher = more reporter protein produced
Hit rule: 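Active when the median/MAD z-score for overall luciferase is greater than 3; a gene was taken forward for validation with new siRNAs if at least two of its three siRNAs passed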
Calls: active = raised luciferase; inactive = no rise

no.	Gene	siRNA no.	total luciferase, z-score	activity call
1	CFTR	1	-0.582	inactive
2	CFTR	2	-0.565	inactive
3	CFTR	3	-1.46	inactive
4	TMEM129	1	0.713	inactive
5	TMEM129	2	0.821	inactive
6	TMEM129	3	2.66	inactive
7	PHLDA2	1	0.42	inactive
8	PHLDA2	2	-0.251	inactive
9	PHLDA2	3	-1.32	inactive
10	MYO1B	1	-0.111	inactive
11	MYO1B	2	0.257	inactive
12	MYO1B	3	-0.393	inactive
13	GZMH	1	-0.0401	inactive
14	GZMH	2	1.25	inactive
15	GZMH	3	3.84	active
16	GPATCH11	1	-1.76	inactive
17	GPATCH11	2	-0.291	inactive
18	GPATCH11	3	-0.764	inactive
19	MTO1	1	0.306	inactive
20	MTO1	2	-1.31	inactive
21	MTO1	3	-0.329	inactive
22	HS6ST1	1	0.829	inactive
23	HS6ST1	2	1.26	inactive
24	HS6ST1	3	0.339	inactive
25	SDHAF2	1	0.127	inactive
26	SDHAF2	2	1.12	inactive
27	SDHAF2	3	1.2	inactive
28	AGMAT	1	-0.452	inactive
29	AGMAT	2	-1.59	inactive
30	AGMAT	3	0.92	inactive
31	JCADP1	1	-1.03	inactive
32	JCADP1	2	0.353	inactive
33	JCADP1	3	0.376	inactive
34	LINC01547	1	-0.287	inactive
35	LINC01547	2	-0.981	inactive
36	LINC01547	3	0.0388	inactive
37	LINC01547	4	0.58	inactive
38	LINC01547	5	0.607	inactive
39	LINC01547	6	0.442	inactive

6 consecutive entries from above, for reference:
no.	Gene	siRNA no.	total luciferase, z-score	activity call
7	PHLDA2	1	0.42	inactive
8	PHLDA2	2	-0.251	inactive
9	PHLDA2	3	-1.32	inactive
10	MYO1B	1	-0.111	inactive
11	MYO1B	2	0.257	inactive
12	MYO1B	3	-0.393	inactive
